Reference: article PMC6339410

Tests used:
[1] = biological target: T1, ZDHHC18 (human (endogenous in PN12 and MES23 glioma stem cells)) (UniProt Q9NUE0); test: affinity purification with mass spectrometry; lysates of PN12 and MES23 glioma stem cells; IP with anti-ZDHHC18 and anti-ZDHHC23 antibodies, IP-protein complex analysed by LC/MS-MS; peaks shared by both cell types and both IPs
T1 sequence: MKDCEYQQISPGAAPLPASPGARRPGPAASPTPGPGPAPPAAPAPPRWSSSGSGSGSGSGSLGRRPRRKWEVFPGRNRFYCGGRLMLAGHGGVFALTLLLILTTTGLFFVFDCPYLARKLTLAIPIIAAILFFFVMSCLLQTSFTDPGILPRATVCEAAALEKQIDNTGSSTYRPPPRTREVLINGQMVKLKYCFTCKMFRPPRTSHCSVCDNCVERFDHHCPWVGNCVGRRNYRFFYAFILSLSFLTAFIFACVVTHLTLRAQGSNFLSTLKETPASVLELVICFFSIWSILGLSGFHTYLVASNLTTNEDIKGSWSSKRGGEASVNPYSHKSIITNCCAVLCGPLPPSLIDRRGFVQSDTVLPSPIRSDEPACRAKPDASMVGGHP

[2] = biological target: T2, ZDHHC23 (human (endogenous in PN12 and MES23 glioma stem cells)) (UniProt Q8IYP9); test: as above
T2 sequence: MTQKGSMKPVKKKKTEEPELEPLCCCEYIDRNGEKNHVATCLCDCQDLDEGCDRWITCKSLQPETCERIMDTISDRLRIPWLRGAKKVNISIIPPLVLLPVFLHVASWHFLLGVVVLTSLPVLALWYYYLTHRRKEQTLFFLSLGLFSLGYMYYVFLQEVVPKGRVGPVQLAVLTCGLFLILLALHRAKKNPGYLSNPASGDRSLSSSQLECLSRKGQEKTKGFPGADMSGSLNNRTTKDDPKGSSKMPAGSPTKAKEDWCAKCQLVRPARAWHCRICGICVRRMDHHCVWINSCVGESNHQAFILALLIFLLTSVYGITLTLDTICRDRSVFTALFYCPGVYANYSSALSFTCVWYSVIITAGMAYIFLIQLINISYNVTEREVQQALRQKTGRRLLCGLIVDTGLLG

B1: RNF144A (Ring Finger protein 144A) (protein, UniProt P50876 1-292)
chain: MTTTRYRPTWDLALDPLVSCKLCLGEYPVEQMTTIAQCQCIFCTLCLKQYVELLIKEGLETAISCPDAACPKQGHLQENEIECMVAAEIMQRYKKLQFEREVLFDPCRTWCPASTCQAVCQLQDVGLQTPQPVQCKACRMEFCSTCKASWHPGQGCPETMPITFLPGETSAAFKMEEDDAPIKRCPKCKVYIERDEGCAQMMCKNCKHAFCWYCLESLDDDFLLIHYDKGPCRNKLGHSRASVIWHRTQVVGIFAGFGLLLLVASPFLLLATPFVLCCKCKCSKGDDDPLPT
binding [1]: binds | binding [2]: binds

Results are given in words; binding and its absence hold for the method and conditions named. In cells and extracts the contact can be indirect. Here binding means that the protein was enriched with, or labelled near, the bait; the list need not be complete.
